According to patent US20150299335A1 (X BODY, published 2015):
Results are given in words; binding and its absence hold for the method and conditions named. Some results given as binding are weak or reduced against the parent protein; the word gives no strength.

Molecular target: T1, HER2 (UniProt P04626 23-652, limits assumed)
T1 construct: also called receptor tyrosine-protein kinase erbB-2
Test: FACS-based competition assay

B1: B8 anti-HER2 VH domain (other)
VH: EVQLVESGAEVKEPGASVKVSCKSSGYSFTGNYMHWVRQAPGQGLEWMGWMNPKSGGTYYAQKFQGRVTMTWDTSISTAYMELSGLTSDDTAVYYCARWARGSTSPHGLDVWGQGTLVTVSS
notes: Stand-alone antibody VH domain with no light chain; also called B8 VH domain; B8 VH
binding: binds
